Series [1] deals with T1, phospholamban (PLN, wild type) (UniProt P61014).
T1 sequence: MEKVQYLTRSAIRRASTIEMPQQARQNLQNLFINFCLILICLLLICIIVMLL
As to the kind of experiment: fluorescence polarization; affinity capillary electrophoresis. The following applies: ACE/FP: 20 mM MOPS pH 7.0, 0.1% C12E8, 0.25 mM DTT, 1 mM MgCl2, 1 mM KCl, 5 mM CaCl2, 2.5 nM FAM-ssDNA, label: 5' FAM, single-stranded DNA.

In series [2] the target is T1, phospholamban (PLN, wild type). As to the kind of experiment: solid-state NMR (RINEPT). To be noted: DMPC vesicles, 1:1 molar ratio; recombinant protein; single-stranded DNA.
In series [3] the test system is PLN-AFA (pentamer-destabilizing mutant). Description: solution NMR ([1H,15N] HSQC). The following applies: isotropic bicelles q=0.33, legend names PLN-AFA, text says PLN; recombinant protein; single-stranded DNA.
[4] abbreviates: low nM Kd, value only in figure, recombinant protein.

The exact form of at least one protein or probe is not confirmed. For some of these results: The comparison behind a weaker result is the experiment's own reference, which may not be listed here.

From publication PMC4543939 come the findings set out here.

Turning to AGCAGCACAGAGGTCAGATG [20mer ssDNA], the binding result in series [1] (setting [4]) is reported as “binds”.
On to “AGCAGCACAGAGGTCAGATGCAGGTAGGGTCCTATGCGTGCTACCGTGAA [50mer ssDNA]”, for which the binding result in series [1] (low nM Kd, similar to the 50mer RNA, recombinant …) is given as “binds”.
On to “AGCAGCACAGAGGTCAGATGCAGGTAGGGTCCTATGCGTGCTACCGTGAAAGCAGCACAGAGGTCAGATGATAGCTTGCA [80mer ssDNA used for NMR]”, for which, in series [2], the binding result is listed as “binds”.
As for “AGTGATAGCTATGGT [15mer ssDNA used for solution NMR]”, the binding result in series [3] is on record as “binds”.
As to AGTGATAGCTATGGT [15mer ssDNA], the binding result in series [1] (setting [4]) is “binds”.
As for ATAGCTTGCA [10mer ssDNA], the binding result in series [1] (recombinant protein) is recorded as “binds more weakly”.
Same read-out and setting: then GCTTG [5mer ssDNA], with “binds more weakly”.
